Assay results taken from PMC8965026.
No constants are given. Whether binding was seen depends on the method and setting. Binding seen in cells or lysates may run through a third protein. Some entries that bind do so weakly or less than the wild type.

The chains behind the UniProt entries cited, without tags or fusion partners.
UniProt P61586: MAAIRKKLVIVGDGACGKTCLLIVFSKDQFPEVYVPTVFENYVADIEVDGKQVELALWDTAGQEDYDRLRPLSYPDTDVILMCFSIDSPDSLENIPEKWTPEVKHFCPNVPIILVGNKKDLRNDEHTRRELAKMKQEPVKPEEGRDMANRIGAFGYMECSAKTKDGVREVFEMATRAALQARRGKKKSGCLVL

Key:
[1] = target: SLP65 (Src homology containing leucocyte protein of 65 kDa), endogenous human (human (endogenous in DG75EB/HA-RhoA and peripheral blood B cells)) (UniProt Q8WV28); experiment: proximity ligation; in situ PLA (Duolink) in DG75EB/HA-RhoA cells, unstimulated or stimulated with anti-IgM F(ab)'2 (3 and 5 min); controls with secondary antibodies only
[2] = target: phosphorylated SLP65, endogenous human (human (endogenous in DG75EB/HA-RhoA)) (UniProt Q8WV28); experiment: as above
[3] = target: SLP65 (Src homology containing leucocyte protein of 65 kDa), endogenous human (human (endogenous in DG75EB/HA-RhoA and peripheral blood B cells)) (UniProt Q8WV28); experiment: co-IP; endogenous proteins in lysate of DG75EB/HA-RhoA cells, serum starved, stimulated 0, 1, 3, 5 and 10 min with 10 µg/ml anti-human IgM F(ab)'2 at 37°C; IP with anti-SLP65 (anti-BLNK) antibody and Protein G Sepharose; lysis buffer 1 mM EDTA, 50 mM Tris pH 7.5, 150 mM NaCl, 0.1% Triton X-100; immunoblot
[4] = target: T1, SLP65, endogenous mouse (mouse (endogenous in primary B cells)) (UniProt Q9QUN3); experiment: proximity ligation; in situ PLA (Duolink) in primary B cells isolated by CD19 magnetic sorting: murine bone marrow and spleen, human peripheral blood
T1 sequence: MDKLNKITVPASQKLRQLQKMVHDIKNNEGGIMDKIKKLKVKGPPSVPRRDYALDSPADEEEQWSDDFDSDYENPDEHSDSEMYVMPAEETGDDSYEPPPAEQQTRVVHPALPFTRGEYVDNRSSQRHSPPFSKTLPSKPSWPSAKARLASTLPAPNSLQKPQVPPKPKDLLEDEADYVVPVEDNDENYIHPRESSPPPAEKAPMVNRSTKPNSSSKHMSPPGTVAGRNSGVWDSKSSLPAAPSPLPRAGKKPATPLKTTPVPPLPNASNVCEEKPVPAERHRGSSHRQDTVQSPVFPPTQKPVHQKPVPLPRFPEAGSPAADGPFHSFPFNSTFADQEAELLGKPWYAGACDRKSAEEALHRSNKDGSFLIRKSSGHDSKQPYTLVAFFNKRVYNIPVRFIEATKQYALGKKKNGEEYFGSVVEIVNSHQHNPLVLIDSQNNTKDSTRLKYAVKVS

HA tagged RHOA in DG75EB/HA-RhoA cells (from UniProt P61586 1-193)
binding [1]: binds | binding [2]: binds

B1: PLCγ2, endogenous human (protein, UniProt P16885 1-1265)
chain: MSTTVNVDSLAEYEKSQIKRALELGTVMTVFSFRKSTPERRTVQVIMETRQVAWSKTADKIEGFLDIMEIKEIRPGKNSKDFERAKAVRQKEDCCFTILYGTQFVLSTLSLAADSKEDAVNWLSGLKILHQEAMNASTPTIIESWLRKQIYSVDQTRRNSISLRELKTILPLINFKVSSAKFLKDKFVEIGAHKDELSFEQFHLFYKKLMFEQQKSILDEFKKDSSVFILGNTDRPDASAVYLHDFQRFLIHEQQEHWAQDLNKVRERMTKFIDDTMRETAEPFLFVDEFLTYLFSRENSIWDEKYDAVDMQDMNNPLSHYWISSSHNTYLTGDQLRSESSPEAYIRCLRMGCRCIELDCWDGPDGKPVIYHGWTRTTKIKFDDVVQAIKDHAFVTSSFPVILSIEEHCSVEQQRHMAKAFKEVFGDLLLTKPTEASADQLPSPSQLREKIIIKHKKLGPRGDVDVNMEDKKDEHKQQGELYMWDSIDQKWTRHYCAIADAKLSFSDDIEQTMEEEVPQDIPPTELHFGEKWFHKKVEKRTSAEKLLQEYCMETGGKDGTFLVRESETFPNDYTLSFWRSGRVQHCRIRSTMEGGTLKYYLTDNLTFSSIYALIQHYRETHLRCAEFELRLTDPVPNPNPHESKPWYYDSLSRGEAEDMLMRIPRDGAFLIRKREGSDSYAITFRARGKVKHCRINRDGRHFVLGTSAYFESLVELVSYYEKHSLYRKMRLRYPVTPELLERYNMERDINSLYDVSRMYVDPSEINPSMPQRTVKALYDYKAKRSDELSFCRGALIHNVSKEPGGWWKGDYGTRIQQYFPSNYVEDISTADFEELEKQIIEDNPLGSLCRGILDLNTYNVVKAPQGKNQKSFVFILEPKQQGDPPVEFATDRVEELFEWFQSIREITWKIDTKENNMKYWEKNQSIAIELSDLVVYCKPTSKTKDNLENPDFREIRSFVETKADSIIRQKPVDLLKYNQKGLTRVYPKGQRVDSSNYDPFRLWLCGSQMVALNFQTADKYMQMNHALFSLNGRTGYVLQPESMRTEKYDPMPPESQRKILMTLTVKVLGARHLPKLGRSIACPFVEVEICGAEYDNNKFKTTVVNDNGLSPIWAPTQEKVTFEIYDPNLAFLRFVVYEEDMFSDPNFLAHATYPIKAVKSGFRSVPLKNGYSEDIELASLLVFCEMRPVLESEEELYSSCRQLRRRQEELNNQLFLYDTHQNLRNANRDALVKEFSVNENQLQLYQEKCNKRLREKRVSNSKFYS
binding [3]: binds

B2: GEF-H1, endogenous mouse (protein, UniProt Q60875 1-985)
chain: MSRIESLTRARIDRSKEQATKTREKEKMKEAKDARYTNGHLFTTISVSGMTMCYACNKSITAKEALICPTCNVTIHNRCKDTLANCTKVKQKQQKAALLRNNTALQSVSLRSKTTTRERPTSAIYPSDSFRQSLLGSRRGLSSLSLAKSVSTTNIAGHFNDESPLGLRQILSQSTDSLNMRNRTLSVESLIDEGVEVFYNELMSDFEMDEKDFEADSWSLAVDSSFLQQHKKEVMKKQDVIYELIQTELHHVRTLKIMTRLFRTGMLEELQMEPEVVQGLFPCVDELSDIHTRFLNQLLERRRQALCPGSTRNFVIHRLGDLLISQFSGSNAEQMRKTYSEFCSRHTKALKLYKELYARDKRFQQFIRKMTRSAVLKRHGVQECILLVTQRITKYPVLINRILQNSHGVEEEYQDLASALGLVKELLSNVDQDVHELEKEARLQEIYNRMDPRAQTPVPGKGPFGRDELLRRKLIHEGCLLWKTATGRFKDVLLLLMTDVLVFLQEKDQKYIFTSLDKPSVVSLQNLIVRDIANQAKGMFLISSGPPEMYEVHAASRDDRTTWIRVIQQSVRLCPSREDFPLIETEDKAYLRRIKTKLQQKNQALVELLQKNVELFAEMVHFQALKAGFVGMPPPALPRGLFRLESFESLRGERLLKDALREVEGLKDLLLGPCVDLPMTSREPALPLDSDSGSCPGVTANGEARTFNGSIELCRADSDSSQKDRNGNQLRSPQEEVLQPLINLYGLLHGLQAVVVQQERLMEALFPEGPERWEKLSRANSRDGEAGRAAVASVTPEKQATELALLQRQHTLLQEELRRCQRLGEERATEAGSLEARLRESEQARALLEREAEEIRRQLAALGQNEPLPAEAPWARRPLDPRRRSLPAGDALYLSFNPPQPSRGHDRLDLPVTVRSLHRPFDDREAQELGSPEDRLQDSSDPDTGSEEEVSSRLSPPHSPRDFTRMQDIPEETESRDGEPTASES
binding [4]: binds
